# The source gives many values for each of these; only a part stands here.
# Tested on: distal small bowel gene expression
# Experiment: RNA sequencing / transcriptional analysis of small bowel 56 days after ICR (2′-FL signature response)
# Format: in vivo, mouse
# Description: Luminal small bowel contents were expressed into AllProtect Tissue Reagent (Qiagen Inc, CA). Bacterial DNA was extracted using the AllPrep DNA/RNA Mini Kit (Qiagen Inc, CA), according to kit instructions and prior to sequencing (described below). Small bowel tissue samples for RNA were placed into RNA Later (Life Technologies, NY). RNA extraction was accomplished following Qiagen RNeasy Plus Kit instruction (Qiagen Inc, CA). All nucleic acid samples were then stored at -80 Celsius until sequenced (described below). Transcriptional analysis was carried out on resected and harvested small bowel samples obtained from operated mice taken to 8 weeks. Murine RNA sequencing libraries were prepared from approximately 1.5 μg RNA using the TruSeq RNA Sample Preparation Kit (Illumina, Calif.) and sequenced using the HiSeq 2000 Sequencing System (Illumina, Calif.) with single-end 50 bp reads. Following removal of primers and barcodes, sequences were aligned to the mm10 genome using reference annotations from UCSC (Rosenbloom et al. (2015) Nucleic acids research 43: […]-681) (n=36,186 entities). Aligned reads were quantified and used to compute reads per kilobase per million mapped reads (RPKM); raw counts were then normalized using the DESeq algorithm and each harvested sample was baselined to its own resected sample. A filter was applied to the data, requiring at least three reads in all samples of at least one of the four experimental conditions (n=14,489 entities). The data discussed in this publication have been deposited in NCBI's Gene Expression Omnibus and are accessible through NCBI Gene Expression Omnibus (GEO) Series accession number GSE72590. Edgar et al. (2002) Nucleic acids research 30: 207-210. In order to characterize the impact of 2'-FL supplementation while accounting for the effect of ileoecal resection, a t-test was applied between resected and harvested samples within control and experimental animals. Significance was set at a p-value of ≤0.05 and a fold change of 3, which generated 2,576 differentially regulated entities across two comparisons. Gene set unions and intersections of the control and experimental gene sets were identified through Venn diagrams. From the master list, the gene list specific to animals supplemented with 2'-FL were removed in order to identify genes differentially regulated only by ICR (n=546 entities); this gene set characterizes the adaptive response. Further, the 2'-FL response (n=2,030 entities) was identified by removing the adaptive response signature described above from the master list, leaving only genes regulated by 2'-FL supplementation after ICR which were not found in the non-supplemented adaptive response. Heatmaps were generated using hierarchical clustering with the Pearson's Centered distance metric and the average linkage rule; both entities and samples were clustered. All genomic analyses described above were performed in Strand NGS (Strand Life Sciences, CA). Gene list functional enrichment was initially discovered using ToppFun, a member of the ToppGene Suite. Chen et al. (2009) Nucleic acids research 37: […]-311. No statistical correction was selected. Gene lists were further analyzed using ClueGO, a plugin for Cytoscape designed to decipher functionally grouped gene ontology and pathway annotation networks. Bindea et al. (2009) Bioinformatics 25: 1091-1093. At the time of data analysis, the annotation files were updated from sources to Jan. 1, 2015. “GO Term Fusion” was enabled to manage ontologic term redundancy and network specificity was set to medium. Results were restricted to pathways with p≤0.05 using Benjamini-Hochberg correction and Kappa scoring was set to 0.4. Biocyc annotations were assigned a rectangle, gene ontology biologic processes were assigned an ellipse, and […] annotations were assigned a diamond shape. No meaning was assigned to size or color. […]
structure (smiles),measurement,setting,value
"C[C@@H]1O[C@@H](O[C@H]2[C@H](O[C@H]3[C@H](O)[C@@H](O)C(O)O[C@@H]3CO)O[C@H](CO)[C@H](O)[C@@H]2O)[C@@H](O)[C@H](O)[C@@H]1O (stereo partly drawn) [2′-FL, 2′-fucosyllactose]",Fold Change (Pre- to Post-op),P2ry10,3.204
same,Fold Change (Pre- to Post-op),Pafah1b3,3.318
same,Fold Change (Pre- to Post-op),Pam16,3.406
same,Fold Change (Pre- to Post-op),Pbx4,9.262
same,Fold Change (Pre- to Post-op),Pcbd2,3.483
same,Fold Change (Pre- to Post-op),Pdcd6,3.622
same,Fold Change (Pre- to Post-op),Pdcd10,5.04
same,Fold Change (Pre- to Post-op),Pet100,5.568
same,Fold Change (Pre- to Post-op),Pex2,3.147
same,Fold Change (Pre- to Post-op),Pfdn1,3.358
same,Fold Change (Pre- to Post-op),Pfdn5,3.849
same,Fold Change (Pre- to Post-op),Phgr1,4.116
same,Fold Change (Pre- to Post-op),Phlda2,4.564
same,Fold Change (Pre- to Post-op),Phospho2,3.647
same,Fold Change (Pre- to Post-op),Pigf,3.784
same,Fold Change (Pre- to Post-op),Pih1d2,3.729
same,Fold Change (Pre- to Post-op),Pla2g12b,3.344
same,Fold Change (Pre- to Post-op),Pla2g16,3.171
same,Fold Change (Pre- to Post-op),Plac8,3.345
same,Fold Change (Pre- to Post-op),Plac9a,3.371
same,Fold Change (Pre- to Post-op),Plac9b,3.371
same,Fold Change (Pre- to Post-op),Pmvk,5.014
same,Fold Change (Pre- to Post-op),Pold4,3.168
same,Fold Change (Pre- to Post-op),Polr2i,3.189
same,Fold Change (Pre- to Post-op),Polr2j,3.219
same,Fold Change (Pre- to Post-op),Polr2k,5.389
same,Fold Change (Pre- to Post-op),Polr1d,3.231
same,Fold Change (Pre- to Post-op),Pomp,3.398
same,Fold Change (Pre- to Post-op),Ppih,4.322
same,Fold Change (Pre- to Post-op),Ppp1r14d,3.701
same,Fold Change (Pre- to Post-op),Prap1,3.981
same,Fold Change (Pre- to Post-op),Prdx1,3.381
same,Fold Change (Pre- to Post-op),Prdx2,3.842
same,Fold Change (Pre- to Post-op),Prdx5,4.089
same,Fold Change (Pre- to Post-op),Prg2,5.919
same,Fold Change (Pre- to Post-op),Prkrip1,3.005
same,Fold Change (Pre- to Post-op),Prorsd1,3.258
same,Fold Change (Pre- to Post-op),Prrx1,5.165
same,Fold Change (Pre- to Post-op),Prss16,3.968
same,Fold Change (Pre- to Post-op),Psma3,3.177
same,Fold Change (Pre- to Post-op),Psma5,3.049
same,Fold Change (Pre- to Post-op),Psma6,3.67
same,Fold Change (Pre- to Post-op),Psma7,5.538
same,Fold Change (Pre- to Post-op),Psmb9,3.059
same,Fold Change (Pre- to Post-op),Psmd10,3.428
same,Fold Change (Pre- to Post-op),Psmd14,3.822
same,Fold Change (Pre- to Post-op),Psme2,3.156
same,Fold Change (Pre- to Post-op),Psmg4,3.559
same,Fold Change (Pre- to Post-op),Ptges3l,3.396
same,Fold Change (Pre- to Post-op),Ptgis,3.03
same,Fold Change (Pre- to Post-op),Pthlh,3.335
same,Fold Change (Pre- to Post-op),Ptpmt1,3.707
same,Fold Change (Pre- to Post-op),Ptrh1,4.615
same,Fold Change (Pre- to Post-op),Pts,3.997
same,Fold Change (Pre- to Post-op),Pycard,4.268
same,Fold Change (Pre- to Post-op),Rab9,3.857
same,Fold Change (Pre- to Post-op),Ran,3.251
same,Fold Change (Pre- to Post-op),Rap1b,3.368
same,Fold Change (Pre- to Post-op),Rasl2-9,3.267
same,Fold Change (Pre- to Post-op),Rbm3,3.647
same,Fold Change (Pre- to Post-op),Rbm7,3.27
same,Fold Change (Pre- to Post-op),Rbp2,3.383
same,Fold Change (Pre- to Post-op),Rbp7,4.897
same,Fold Change (Pre- to Post-op),Rdh16,3.631
same,Fold Change (Pre- to Post-op),Reg1,3.362
same,Fold Change (Pre- to Post-op),Reg3d,5.356
same,Fold Change (Pre- to Post-op),Rgs17,3.385
same,Fold Change (Pre- to Post-op),Rhebl1,4.307
same,Fold Change (Pre- to Post-op),Rhoc,3.67
same,Fold Change (Pre- to Post-op),Rhod,4.302
same,Fold Change (Pre- to Post-op),Rmdn1,3.757
same,Fold Change (Pre- to Post-op),Rnd2,5.174
same,Fold Change (Pre- to Post-op),Rnf7,3.146
same,Fold Change (Pre- to Post-op),Romo1,3.798
same,Fold Change (Pre- to Post-op),Rpa3,4.327
same,Fold Change (Pre- to Post-op),Rpl5,3.662
same,Fold Change (Pre- to Post-op),Rpl9,4.323
same,Fold Change (Pre- to Post-op),Rpl10a,3.175
same,Fold Change (Pre- to Post-op),Rpl11,3.363
same,Fold Change (Pre- to Post-op),Rpl12,3.568
same,Fold Change (Pre- to Post-op),Rpl13a,4.834
same,Fold Change (Pre- to Post-op),Rpl17,4.619
same,Fold Change (Pre- to Post-op),Rpl19,3.266
same,Fold Change (Pre- to Post-op),Rpl22l1,3.846
same,Fold Change (Pre- to Post-op),Rpl27,3.19
same,Fold Change (Pre- to Post-op),Rpl27a,3.001
same,Fold Change (Pre- to Post-op),Rpl32,3.449
same,Fold Change (Pre- to Post-op),Rpl35,4.283
same,Fold Change (Pre- to Post-op),Rpl35a,4.542
same,Fold Change (Pre- to Post-op),Rpl36,4.099
same,Fold Change (Pre- to Post-op),Rpl39,3.252
same,Fold Change (Pre- to Post-op),Rpl41,5.464
same,Fold Change (Pre- to Post-op),Rplp0,3.47
same,Fold Change (Pre- to Post-op),Rps3,3.59
same,Fold Change (Pre- to Post-op),Rps7,3.864
same,Fold Change (Pre- to Post-op),Rps8,3.076
same,Fold Change (Pre- to Post-op),Rps9,3.018
same,Fold Change (Pre- to Post-op),Rps10,3.708
same,Fold Change (Pre- to Post-op),Rps11,3.225
same,Fold Change (Pre- to Post-op),Rps12,3.585
same,Fold Change (Pre- to Post-op),Rps13,3.214
same,Fold Change (Pre- to Post-op),Rps14,4.273
same,Fold Change (Pre- to Post-op),Rps15,3.233
same,Fold Change (Pre- to Post-op),Rps18,3.269
same,Fold Change (Pre- to Post-op),Rps19,3.136
same,Fold Change (Pre- to Post-op),Rps21,3.557
same,Fold Change (Pre- to Post-op),Rps27,3.214
same,Fold Change (Pre- to Post-op),Rps27a,3.505
same,Fold Change (Pre- to Post-op),Rps27l,4.991
same,Fold Change (Pre- to Post-op),S100a1,3.593
same,Fold Change (Pre- to Post-op),S100a4,3.218
same,Fold Change (Pre- to Post-op),S100a10,3.197
same,Fold Change (Pre- to Post-op),S100a14,6.184
same,Fold Change (Pre- to Post-op),S100a16,3.164
same,Fold Change (Pre- to Post-op),Sall1,−3.002
same,Fold Change (Pre- to Post-op),Sar1b,5.1
same,Fold Change (Pre- to Post-op),Sc4mol,4.073
same,Fold Change (Pre- to Post-op),Scoc,3.046
same,Fold Change (Pre- to Post-op),Sdcbp2,4.252
same,Fold Change (Pre- to Post-op),Sdf2,3.001

# From US10857167B2, “Use of oligosaccharide compositions to enhance weight gain” (Children's Hospital Medical Center, priority 2015, dated 2020)
